# Measured values: patent US20190111164A1
# These are yes or no findings as the source states them, for the method shown. Some entries that bind do so weakly or less than the wild type.
# B1: 2F3 parent antibody (antibody, V domains shown)
# VH: QITLRESGGGLVQPGGSLRLSCAASGFTFDSYAMSWVRQAPGKGLEWVSAISGSGDSTYYADSVKGRFSISRDNSKNTLYLQMNSLRAEDTAVYYCAIRREYSGYAPFDYWGQGTLVTVSS
# VL: DIVMTQTPSSLSASVGDRVTITCRASQGISSWLAWYQQKPEKAPRSLIYAASSLQSGVPSRFSGSGSGTDFTLTISSLQPEDFATYYCQQYISYPYTFGQGTKLEIK
# Target: Muc1-1-5G peptide
# Test: ELISA, peptide coated on the plate
binder,measurement,value
B1,binding,binds
